Values from PubChem BioAssay AID1053208 (Peter MacCallum Cancer Centre, 2014).

Assay: 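Synthetic lethal interactions between gene loss and doxorubicin in osteosarcoma cells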 (primary screen)
System: mouse osteosarcoma cells, early-passage culture from an engineered mouse model of fibroblastic bone tumour
Reagent: siRNA pool against mouse genes, 40 nM
Timing: about 120 h (48 h before drug, then 72 h with drug)
Treatment: doxorubicin 100 nM for 72 h, roughly 30-40% inhibitory dose
Measurement: 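Luminescent ATP signal taken as viability with or without 100 nM doxorubicin for 72 h; mean of two wells set against non-targeting siRNA and turned into robust z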
Direction: viability z-score with doxorubicin: higher = more viable cells under doxorubicin; viability z-score without drug: higher = more viable cells with knock-down alone
Hit rule: 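Called active if knock-down leaves viability unchanged without drug (z within -2 to 2) but lowers it with doxorubicin (z at or under -2)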
Here is an unselected part of about 17,000 deposited reagents. Over the whole deposit, 788 (4.7%) got an active call. 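Calls rest on z-score classes alone; an extra cut-off of viability at most 70% of control was not applied to them.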 Not all columns of the deposit are shown.

target | combined z-score class | viability z-score with doxorubicin | viability z-score without drug | Call
Oasl2 | no change with or without drug | 0.67 | -0.51 | inactive
Sik1 | high cell count with doxorubicin only | 2.02 | 1.18 | inactive
Tap1 | no change with or without drug | -0.67 | -0.17 | inactive
Moap1 | no change with or without drug | 1.91 | 0.17 | inactive
Cyp46a1 | no change with or without drug | 0.79 | 1.01 | inactive
Gfi1b | low cell count with doxorubicin only | -2.59 | -1.18 | active
Vmn1r21 | no change with or without drug | -0.9 | 0.17 | inactive
Clybl | no change with or without drug | -0.56 | -0.51 | inactive
Depp1 | no change with or without drug | 0.9 | 1.01 | inactive
Zcchc10 | no change with or without drug | -0.9 | -0.17 | inactive

Limited to “viability z-score without drug”, for 3 of the entries above:
Gfi1b = -1.18
Vmn1r21 = 0.17
Clybl = -0.51

Next entries follow.
target | combined z-score class | viability z-score with doxorubicin | viability z-score without drug | Call
Or2j6 | no change with or without drug | 1.24 | 1.18 | inactive
Eef1a2 | no change with or without drug | -0.22 | 1.52 | inactive
Zc2hc1c | no change with or without drug | -0.56 | -1.18 | inactive
Siglecg | no change with or without drug | -0.79 | 0.34 | inactive
Nek11 | no change with or without drug | -0.56 | -0.51 | inactive
Vdr | no change with or without drug | 0.67 | 0.84 | inactive
Or7g33 | no change with or without drug | -0.45 | 1.85 | inactive
Samt3 | no change with or without drug | -1.12 | 1.52 | inactive
Tmem167 | no change with or without drug | 1.69 | 0.34 | inactive
Polrmt | no change with or without drug | 0.9 | -0.51 | inactive
